Two substances from paper PMC11989569 can be followed below.

The chains behind the UniProt entries cited, without tags or fusion partners. Where a name states a change or a piece, a line headed by the entry shows the natural chain unless it says otherwise.
UniProt Q5S007: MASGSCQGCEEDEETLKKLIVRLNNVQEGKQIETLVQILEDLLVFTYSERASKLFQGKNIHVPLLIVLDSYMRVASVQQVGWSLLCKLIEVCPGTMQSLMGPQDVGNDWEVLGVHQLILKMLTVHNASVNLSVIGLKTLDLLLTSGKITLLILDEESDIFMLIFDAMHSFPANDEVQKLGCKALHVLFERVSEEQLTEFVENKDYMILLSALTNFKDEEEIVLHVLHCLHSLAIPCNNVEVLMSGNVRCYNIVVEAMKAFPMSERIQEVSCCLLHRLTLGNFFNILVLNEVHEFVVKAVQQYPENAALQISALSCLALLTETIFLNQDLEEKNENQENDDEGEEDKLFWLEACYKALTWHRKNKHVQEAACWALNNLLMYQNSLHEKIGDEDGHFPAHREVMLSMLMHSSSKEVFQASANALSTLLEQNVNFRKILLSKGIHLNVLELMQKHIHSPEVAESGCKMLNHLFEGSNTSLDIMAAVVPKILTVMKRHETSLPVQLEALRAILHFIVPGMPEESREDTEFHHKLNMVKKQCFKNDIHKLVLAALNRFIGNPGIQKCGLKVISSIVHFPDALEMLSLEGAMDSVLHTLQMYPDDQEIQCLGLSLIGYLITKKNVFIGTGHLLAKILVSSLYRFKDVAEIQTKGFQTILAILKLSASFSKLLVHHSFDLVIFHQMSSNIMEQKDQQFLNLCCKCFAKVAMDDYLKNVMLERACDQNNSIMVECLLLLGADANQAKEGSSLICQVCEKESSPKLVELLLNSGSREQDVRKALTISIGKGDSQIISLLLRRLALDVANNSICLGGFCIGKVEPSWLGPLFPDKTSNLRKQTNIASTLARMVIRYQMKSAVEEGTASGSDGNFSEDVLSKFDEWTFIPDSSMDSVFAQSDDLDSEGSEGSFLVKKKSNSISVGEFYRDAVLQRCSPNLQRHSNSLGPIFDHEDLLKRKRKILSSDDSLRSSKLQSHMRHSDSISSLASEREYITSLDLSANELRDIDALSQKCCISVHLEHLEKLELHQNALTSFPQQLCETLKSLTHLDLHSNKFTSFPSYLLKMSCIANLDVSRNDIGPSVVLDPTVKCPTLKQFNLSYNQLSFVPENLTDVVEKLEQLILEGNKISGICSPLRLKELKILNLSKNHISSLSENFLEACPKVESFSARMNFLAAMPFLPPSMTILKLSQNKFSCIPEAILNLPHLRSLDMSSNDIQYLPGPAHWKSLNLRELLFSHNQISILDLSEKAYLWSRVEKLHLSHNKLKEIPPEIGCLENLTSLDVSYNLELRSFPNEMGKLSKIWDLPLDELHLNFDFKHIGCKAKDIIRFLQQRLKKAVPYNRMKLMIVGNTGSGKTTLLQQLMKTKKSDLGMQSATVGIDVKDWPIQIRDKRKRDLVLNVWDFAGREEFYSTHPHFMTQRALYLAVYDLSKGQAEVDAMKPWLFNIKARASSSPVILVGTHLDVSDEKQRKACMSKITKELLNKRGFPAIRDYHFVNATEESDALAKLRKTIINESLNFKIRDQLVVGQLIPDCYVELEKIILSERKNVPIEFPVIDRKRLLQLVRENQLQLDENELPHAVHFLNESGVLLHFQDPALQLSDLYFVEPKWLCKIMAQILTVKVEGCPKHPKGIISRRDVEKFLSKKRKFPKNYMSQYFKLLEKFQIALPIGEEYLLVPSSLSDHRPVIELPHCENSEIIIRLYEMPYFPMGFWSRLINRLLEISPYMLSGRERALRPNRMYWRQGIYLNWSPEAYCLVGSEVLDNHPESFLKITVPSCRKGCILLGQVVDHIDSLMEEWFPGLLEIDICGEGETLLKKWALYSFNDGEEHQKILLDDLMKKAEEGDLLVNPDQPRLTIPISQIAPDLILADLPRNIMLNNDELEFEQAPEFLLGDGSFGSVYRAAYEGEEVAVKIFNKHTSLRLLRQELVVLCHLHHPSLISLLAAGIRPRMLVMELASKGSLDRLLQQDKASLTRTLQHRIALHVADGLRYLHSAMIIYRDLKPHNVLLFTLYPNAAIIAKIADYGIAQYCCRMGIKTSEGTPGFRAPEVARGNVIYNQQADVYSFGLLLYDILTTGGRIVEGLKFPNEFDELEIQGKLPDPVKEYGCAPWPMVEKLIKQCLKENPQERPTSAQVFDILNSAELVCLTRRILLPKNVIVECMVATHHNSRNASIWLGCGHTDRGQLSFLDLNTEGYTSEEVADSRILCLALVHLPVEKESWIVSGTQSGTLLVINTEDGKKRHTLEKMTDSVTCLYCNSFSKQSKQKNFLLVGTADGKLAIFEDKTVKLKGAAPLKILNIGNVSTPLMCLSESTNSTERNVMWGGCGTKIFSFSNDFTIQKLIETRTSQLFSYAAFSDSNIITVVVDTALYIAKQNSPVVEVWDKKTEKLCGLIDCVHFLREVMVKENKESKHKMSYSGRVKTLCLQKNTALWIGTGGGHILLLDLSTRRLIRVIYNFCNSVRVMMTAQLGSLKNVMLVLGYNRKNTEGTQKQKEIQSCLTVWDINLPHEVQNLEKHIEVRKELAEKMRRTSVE
UniProt P27732: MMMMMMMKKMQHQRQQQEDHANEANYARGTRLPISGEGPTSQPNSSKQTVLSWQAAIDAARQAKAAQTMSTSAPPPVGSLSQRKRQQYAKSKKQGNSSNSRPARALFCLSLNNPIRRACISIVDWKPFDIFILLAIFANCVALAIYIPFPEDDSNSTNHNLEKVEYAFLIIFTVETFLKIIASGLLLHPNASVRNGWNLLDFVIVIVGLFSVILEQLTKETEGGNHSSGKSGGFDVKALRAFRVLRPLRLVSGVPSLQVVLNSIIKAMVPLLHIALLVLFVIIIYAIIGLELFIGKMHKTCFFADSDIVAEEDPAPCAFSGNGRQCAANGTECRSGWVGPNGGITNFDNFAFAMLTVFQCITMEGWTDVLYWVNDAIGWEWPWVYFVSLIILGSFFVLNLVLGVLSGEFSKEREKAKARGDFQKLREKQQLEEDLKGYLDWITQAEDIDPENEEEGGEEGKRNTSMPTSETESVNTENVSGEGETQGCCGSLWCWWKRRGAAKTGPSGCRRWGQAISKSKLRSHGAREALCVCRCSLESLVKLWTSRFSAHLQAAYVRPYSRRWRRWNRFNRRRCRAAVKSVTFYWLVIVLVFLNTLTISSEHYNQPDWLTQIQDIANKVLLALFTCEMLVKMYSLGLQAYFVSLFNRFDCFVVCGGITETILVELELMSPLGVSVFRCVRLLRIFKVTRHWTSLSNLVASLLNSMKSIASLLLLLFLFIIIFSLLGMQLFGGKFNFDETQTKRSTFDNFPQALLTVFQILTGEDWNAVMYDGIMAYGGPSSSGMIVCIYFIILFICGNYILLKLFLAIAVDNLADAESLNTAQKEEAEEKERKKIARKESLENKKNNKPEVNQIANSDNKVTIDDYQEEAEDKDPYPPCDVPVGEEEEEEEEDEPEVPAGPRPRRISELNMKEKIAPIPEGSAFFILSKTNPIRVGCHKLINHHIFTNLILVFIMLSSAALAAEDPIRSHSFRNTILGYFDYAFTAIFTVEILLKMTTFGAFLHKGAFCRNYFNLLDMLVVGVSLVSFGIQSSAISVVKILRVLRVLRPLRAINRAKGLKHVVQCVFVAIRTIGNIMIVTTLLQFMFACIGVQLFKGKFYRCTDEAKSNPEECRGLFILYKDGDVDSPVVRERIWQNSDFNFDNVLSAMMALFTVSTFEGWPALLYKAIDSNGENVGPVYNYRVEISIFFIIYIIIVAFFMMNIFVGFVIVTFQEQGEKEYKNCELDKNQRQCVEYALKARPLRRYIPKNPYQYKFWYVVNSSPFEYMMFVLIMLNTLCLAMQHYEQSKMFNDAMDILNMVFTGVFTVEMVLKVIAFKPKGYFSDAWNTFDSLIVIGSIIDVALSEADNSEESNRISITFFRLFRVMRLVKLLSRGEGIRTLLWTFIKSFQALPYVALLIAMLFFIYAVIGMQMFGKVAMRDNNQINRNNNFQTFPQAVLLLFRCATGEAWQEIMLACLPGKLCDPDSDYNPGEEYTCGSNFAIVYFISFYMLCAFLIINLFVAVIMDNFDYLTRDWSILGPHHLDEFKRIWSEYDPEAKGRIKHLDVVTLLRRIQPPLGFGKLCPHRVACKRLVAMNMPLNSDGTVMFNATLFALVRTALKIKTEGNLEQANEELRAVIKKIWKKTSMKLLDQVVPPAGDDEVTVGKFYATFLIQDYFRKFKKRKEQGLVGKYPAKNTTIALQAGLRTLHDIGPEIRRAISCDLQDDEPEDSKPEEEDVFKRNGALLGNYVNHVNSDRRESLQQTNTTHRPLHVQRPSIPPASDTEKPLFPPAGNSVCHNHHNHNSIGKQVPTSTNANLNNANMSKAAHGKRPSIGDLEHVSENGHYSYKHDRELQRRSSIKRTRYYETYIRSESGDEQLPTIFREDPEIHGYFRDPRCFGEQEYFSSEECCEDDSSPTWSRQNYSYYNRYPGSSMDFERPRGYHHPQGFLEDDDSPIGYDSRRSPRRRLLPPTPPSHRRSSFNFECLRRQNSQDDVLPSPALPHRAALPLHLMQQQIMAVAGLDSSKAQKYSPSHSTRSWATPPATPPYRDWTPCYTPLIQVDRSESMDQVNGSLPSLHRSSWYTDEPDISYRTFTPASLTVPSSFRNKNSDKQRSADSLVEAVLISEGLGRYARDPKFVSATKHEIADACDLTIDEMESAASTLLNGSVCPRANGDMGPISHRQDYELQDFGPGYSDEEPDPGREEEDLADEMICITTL

No constants are given. Whether binding was seen depends on the method and setting. In cells and extracts the contact can be indirect. Some entries that bind do so weakly or less than the wild type.

In assay [1] the target is Leucine-rich repeat kinase 2, wild type, fused to GFP (UniProt Q5S007). Kind of assay: co-IP; lysates of HEK-293 cells transiently transfected with GFP-fused LRRK2 (WT or G2019S) and channel subunits; immunoprecipitation with anti-GFP antibodies (2.5 ug, overnight at 4 °C); lysis buffer 50 mM Tris-HCl pH 8.0, 150 mM NaCl, 1% Triton; Western blot with anti-CaV1.3α1 and anti-CaVβ3; anti-EspC as irrelevant control antibody.

The target in assay [2] is Leucine-rich repeat kinase 2 variant G2019S, fused to GFP (UniProt Q5S007). The assay is described as above.

As for “L-type calcium channel pore-forming subunit CaV1.3α1 (from UniProt P27732 1-2203)”, the binding result in assay [1] and in assay [2] was “no binding” in each case.

Turning to “Voltage-gated calcium channel auxiliary subunit CaVβ3 (from UniProt P54287 1-484)”, the binding entry in assay [1] and in assay [2] was “binds” each time.
